Laboratory results reported in patent US20060252697A1 (ANTYRA, published 2006).
Results are given in words; binding and its absence hold for the method and conditions named. Some results given as binding are weak or reduced against the parent protein; the word gives no strength.

What was measured:
[1] = biological target: T1, rat growth hormone binding protein (rGHBP) (rat) (UniProt P16310); test: phage ELISA on rGHBP-coated wells (100 ng/well); clones from panning of the secondary H5 library
T1 sequence (looked up): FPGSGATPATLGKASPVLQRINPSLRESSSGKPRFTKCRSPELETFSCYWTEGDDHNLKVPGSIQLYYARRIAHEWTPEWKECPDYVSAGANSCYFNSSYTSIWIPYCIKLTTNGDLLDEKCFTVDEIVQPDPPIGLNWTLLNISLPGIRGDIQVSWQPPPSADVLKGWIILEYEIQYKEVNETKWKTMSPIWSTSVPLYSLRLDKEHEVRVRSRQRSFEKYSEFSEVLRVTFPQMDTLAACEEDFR

[2] = biological target: T1, rat growth hormone binding protein (rGHBP) (rat); test: phage ELISA
[3] = biological target: T1, rat growth hormone binding protein (rGHBP) (rat); test: phage ELISA competition on rGHBP (100 ng/well); synthetic H5 peptide against H5 phage
[4] = biological target: T1, rat growth hormone binding protein (rGHBP) (rat); test: ELISA, BIAcore and TRFD
[5] = biological target: T1, rat growth hormone binding protein (rGHBP) (rat); test: phage ELISA on coated wells, anti-M13-HRP, OD405
[6] = biological target: T1, rat growth hormone binding protein (rGHBP) (rat); test: phage ELISA, 10^10 phage/well, recombinant rGHBP 100 ng/well
[7] = biological target: T1, rat growth hormone binding protein (rGHBP) (rat); test: phage ELISA competition on rGHBP (100 ng/well); synthetic peptide (with KK at the C-terminus) against H5 phage, 10^10/well
[8] = biological target: T1, rat growth hormone binding protein (rGHBP) (rat); test: phage ELISA competition
[9] = biological target: T1, rat growth hormone binding protein (rGHBP) (rat); test: phage ELISA, confirmed by BIAcore
[10] = biological target: T1, rat growth hormone binding protein (rGHBP) (rat); test: BIAcore appKD
[11] = biological target: T1, rat growth hormone binding protein (rGHBP) (rat); test: phage ELISA, 10^10 phage/well, rGHBP 100 ng/well
[12] = biological target: T1, rat growth hormone binding protein (rGHBP) (rat); test: TRFD, rGHBP 100 ng/well, streptavidin-europium; background = pretreatment with >=100 fold excess GH
[13] = biological target: T1, rat growth hormone binding protein (rGHBP) (rat); test: BIAcore and phage competition
[14] = biological target: T1, rat growth hormone binding protein (rGHBP) (rat); test: TRFD
[15] = biological target: T1, rat growth hormone binding protein (rGHBP) (rat); test: BIAcore at one concentration and phage competition
[16] = biological target: T1, rat growth hormone binding protein (rGHBP) (rat); test: phage ELISA, clonal analysis, GHBP-coated wells

Measured: binding

DYKDLCQSLGVTYPGWLAGWCA (biotinylated in the BIAcore and TRFD formats (position not given)) [GHBP-H5 peptide (H5WT)]
not listed: [12] | [13] | [14] | [15] | [16]
binds: all other assays above

DYKDLCQRLGVGWPGWLSGWCA (biotinylated in the bP form (position not given)) [peptide #447]
binds: [12] | [4] | [13] | [7] | [14]

DYKDLCQSWQVTWPGWLAGWCA (biotinylated in the bP form (position not given)) [peptide #418]
binds: [12] | [4] | [7] | [14] | [10]

DYKDLCQRLGVGWPGWLAGWCA (biotinylated in the bP form (position not given)) [peptide #445]
binds: [15] | [4] | [7]

AYKDLCQSLGVTYPGWLAGWCA [aYKD]
binds: [11]

DYKALCQSLGVTYPGWLAGWCA [DYKa]
binds: [11]

DYKDLCQSLGVTWPGWLAGWCA [peptide #432]
binds: [15]

DYKDLCQSLGVGWPGWLAGWCA [peptide #436]
binds: [15]

DYKDAQWWTTIGSNMFVLPGLRGCTFLPPMQCDREIRVFLVVVH [clone 13 peptide]
binds: [2] | [16]

DYKDALLHRSRCVRWGKWVCCLPPVGVGGAQANQGMSVQRFRHC [clone HH peptide]
binds: [2] | [16]
